Results deposited as PubChem BioAssay AID504808 (Drosophila RNAi Screening Center, 2011)

- Screen: 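Chromatin factors that keep E2F targets switched off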 (primary screen)
- Cells: Drosophila S2 cells
- Reagents: long dsRNA against Drosophila genes
- Measured: 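Dual luciferase plate measurements; E2F-specific signal taken as firefly over Renilla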
- Reading the numbers: E2F firefly: higher = more E2F reporter activity; Renilla normaliser: higher = more normaliser reporter signal
- Active means: 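a knock-down counted as active when the firefly/Renilla E2F signal rose above 50%, a threshold chosen arbitrarily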
The deposit covers about 21,000 reagents; this is a random part of those that have a named target and a result. Of all reagents, 18 (0.084%) were called active. 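Raw counts without plate normalisation, one of two replicates; the ratio scores behind the calls were not deposited.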 Unmarked entries are inactive. The numbers tell different reagents against one gene apart. Names joined by + are all predicted targets of the reagent. Not stated in the record: the amount of reagent, the time to read-out.

gene,reagent,"E2F firefly, rep 1","Renilla normaliser, rep 1"
Lmpt (Limpet),1,1.33e5,3876
Lmpt (Limpet),2,1.59e5,8254
Lmpt (Limpet),3,76450,3075
Lmpt (Limpet),4,1.56e5,7948
Lmpt (Limpet),5,1.55e5,7863
CG7675,1,63759,3172
CG11893,1,1.18e5,6039
Gnmt (Glycine N-methyltransferase),1,1.46e5,6320
spi (spitz),1,98699,4254
thoc5,1,81956,3194
CG42750,1,91474,3897
CG42750,2,89882,4037
CG42750,3,1.04e5,4013
gudu,1,1.29e5,5179
CG42296,1,1.74e5,6861
CG4363,1,93711,4331
CG8292,1,1.37e5,5672
CG6409,1,81056,3290
CG6142,1,1.11e5,6649
CG6083,1,99284,5199
Ptpa (Phosphotyrosyl phosphatase activator),1,85190,3506
CG18210 (retired record),1,87489,2640
CG18210 (retired record),2,7786,744
Cyp4g15 (Cytochrome P450 4g15),1,1.57e5,6868
CG13337,1,1.09e5,4361
CG14506,1,1.27e5,6593
CG12065,1,8020,844
CG12065,2,1.04e5,5418
qkr58E-3 (quaking related 58E-3),1,75797,3167
"AP-2mu (Adaptor Protein complex 2, mu subunit)",1,59934,3073
CG42713,1,1.39e5,6482
CG4360,1,1.21e5,6880
Hdc (Histidine decarboxylase),1,2729,233
CG15366 (retired record),1,1.24e5,4604
CG7881,1,1.05e5,4449
CG8281,1,98837,3848
Cp110 (Centriolar coiled coil protein 110kDa),1,1.57e5,5360
mgr (merry-go-round),1,1.44e5,7051

An excerpt from above, reduced to “Renilla normaliser, rep 1”.
CG13337 = 4361
CG14506 = 6593
CG12065 #1 = 844
CG12065 #2 = 5418
qkr58E-3 (quaking related 58E-3) = 3167

Continued:
gene,reagent,"E2F firefly, rep 1","Renilla normaliser, rep 1"
sog (short gastrulation),1,1.38e5,6552
flr (flare),1,73577,3645
c(3)G (crossover suppressor on 3 of Gowen),1,77702,3394
Art2 (Arginine methyltransferase 2),1,1.58e5,5384
e(r) (enhancer of rudimentary),1,8590,748
mRpS23 (mitochondrial ribosomal protein S23),1,1.32e5,6074
Syt1 (Synaptotagmin 1),1,1.37e5,6759
Syt1 (Synaptotagmin 1),2,1.29e5,6989
Syt1 (Synaptotagmin 1),3,1.31e5,6204
Syt1 (Synaptotagmin 1),4,79993,3570
gdl-ORF39 + gdl,1,1.64e5,8178
CG4440,1,87220,3898
Dpit47 (DNA polymerase interacting tpr containing protein of 47kD),1,1.19e5,4556
CG10383,1,72893,3389
Vha68-3 (Vacuolar H[+] ATPase 68kD subunit 3),1,98106,4018
CG7137,1,73519,3504
CG18371,1,1.04e5,4397
Asciz (ASCIZ zinc finger protein),1,90960,3735
CG32437,1,1.48e5,6501
GluRIID (Glutamate receptor IID),1,1.61e5,8284
Dyb (Dystrobrevin),1,78087,12720
CG40498,1,1.77e5,6653
mbt (mushroom bodies tiny),1,1.39e5,5306
Rab4,1,69496,4023
Pex3 (Peroxin 3),1,94471,3367
CG32694,1,1.08e5,5544
CG32694,2,1.05e5,5319
HDAC1 (Histone deacetylase 1),1,53351,3158
DCAF12 (DDB1 and CUL4 associated factor 12),1,63005,3351
CG1074,1,91651,3673
Elp6 (Elongator complex protein 6),1,74940,3350
ncm (nucampholin),1,63330,4266
CG9344,1,93160,4177
PEK (pancreatic eIF-2alpha kinase),1,71014,3502
KLHL18 (Kelch like family member 18),1,62520,3376
drm (drumstick),1,1.34e5,5260
Hakai,1,70078,3161
Snx6 (Sorting nexin 6),1,87801,3904
CG6497,1,1.64e5,7160
Rcd-1r + CG13102,1,1.47e5,4864
CG30412,1,83154,3462
Mzt1 (Mitotic spindle organizing protein 1),1,1.35e5,3979
CG5623,1,1.27e5,6304
CG17375,1,1.45e5,4600
Eig71Ej,1,1.59e5,6869
l(3)neo38 (lethal (3) neo38),1,1.47e5,7080
l(3)neo38 (lethal (3) neo38),2,1.47e5,6761
CG3842,1,1.07e5,5141
Sec24CD (Secretory 24CD),1,81779,3950
Snx17 (Sorting nexin 17),1,85917,3401
CG10433,1,77771,3119
CG15760,1,1.21e5,6018
alpha-Man-IIa (alpha-Mannosidase class II a),1,1.45e5,6127
ldd (lipid droplet defective),1,1.45e5,5324
CG6527,1,1.05e5,5508
CG16890,1,85676,3200
CG5065,1,1.40e5,6240
Ir60a (Ionotropic receptor 60a),1,1.18e5,4561
Or33b (Odorant receptor 33b),1,89484,3372
CG13605,1,79353,3974
Dbp45A (DEAD box protein 45A),1,2545,192
Oli (Olig family),1,82074,4136
CG32564,1,1.59e5,7971
CG12702,1,1.30e5,6170
"Trpm (Transient receptor potential cation channel, subfamily M)",1,77993,3580
tut (tumorous testis),1,1.25e5,4304
CG10280,1,1.26e5,5441
meep,1,1.25e5,4419
brun (brunelleschi),1,86775,3938
